Results from PubChem BioAssay AID493014 (National Center for Advancing Translational Sciences (NCATS), 2011).
About 170 (0.05%) of roughly 340,000 compounds were called active. Inconclusive means that the source gave no clear call. Such entries were picked first, then a sample of the others. The call rests on the fitted dose curve; in most records, active means well fitted inhibition curve with a large enough effect in the signal ratio, with a control signal flat (not every such curve was filed as active); inconclusive means small, poorly fitted or top-dose-only effect, or effect the other way, or a change in a side signal; inactive means flat fitted curve, though single readings scatter; the % refers to the signal ratio. Potencies of inconclusive entries are doubtful fits and often do not repeat.

Assay: qHTS Assay to Find Inhibitors of Chronic Active B-Cell Receptor Signaling;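 on activity change, negative = inhibition: plate controls were basal doxycycline-induced cells for no effect and cells given 10 µM MG132 for full effect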
Details: ABC-DLBCL IkBa-CBG/CBR reporter, luminescence ratio (green luciferase fused to IkBa over red control in TMD8 lymphoma cells), 4 h; activity change, negative = inhibition: at 46.1 µM (top of the series)
In short: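 Concentration-response series (up to 46 uM) were applied to TMD8 dual-reporter cells for 4 h at 37C with doxycycline. Green/red ratio, after filter-overlap correction, defined %Activity; red signal alone was normalised to basal cells and zero luminescence.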
Potency means the concentration at half of the fitted maximal effect.

Structure (SMILES) | activity change, negative = inhibition | Potency
CCOc1ccc(/C=N/NC(=O)c2cc3c(OC)cccc3[nH]2)cc1 | inconclusive: -1.02% | 
COc1cc(/C=N/NC(=O)C[n+]2ccccc2)cc(OC)c1OC(C)=O |  | inconclusive: 2.82 µM [falling, partial curve, poor fit]
CCN1CCN(S(=O)(=O)c2ccc3c(c2)OCCO3)CC1 | inconclusive: -7.45% | 
O=C(COC(=O)CNC(=O)c1cccc(Br)c1)Nc1nnc(-c2ccccc2)o1 | inconclusive: -9.56% | 
Cc1c(-c2cc(Br)ccc2O)nc2cc3c(cc2c1C)OCO3 | inconclusive: 3.69% | 
COc1cccc(NC(=O)CN(C)C(=O)c2cc(-c3cccc(Br)c3)nc3ccccc23)c1 | inconclusive: -19% | 
O=C(Oc1ccc(OC(=O)C2CCC2)cc1)C1CCC1 | inactive: 6.4% | 
CC(=O)c1cccc(NC(=O)c2cc(=O)[nH]c3ccccc23)c1 | inconclusive: -0.718% | 
CCOC(=O)C(=Cc1ccc(-n2cncn2)cc1)C(=O)OCC | inconclusive: 23.4% | 
CCOc1ccc(NC(=S)NCCCN2CCOCC2)cc1 | inactive: 6.14% | 
O=[N+]([O-])c1ccc2nc(SCc3cn4cccnc4n3)[nH]c2c1 | inconclusive: 10.1% | 
CCOC(=O)c1sc(NC(=O)/C=C/c2c(F)cccc2Cl)nc1C |  | inconclusive: 0.092 µM [falling, partial curve, poor fit]
O=C(NCCc1nc2ccccc2[nH]1)c1ccc(F)cc1 | inactive: 4.92% | 
COc1ccc2nc(NC(=O)C3CSC4(C)CCC(=O)N34)sc2c1 (stereo not given) | inconclusive: 8.49% | 
CCN(CC)CCCN(Cc1cc2cc3c(cc2[nH]c1=O)OCO3)C(=S)Nc1ccccc1 |  | inconclusive: 35.5 µM [falling, single point]
O=C(CNC(=O)c1sc2ccccc2c1Cl)NCc1cccnc1 |  | inconclusive: 8.91 µM [falling, partial curve]
CCCCN(C)CCNC(=O)c1cc2c(-c3cccc(OC)c3)nn(C)c2s1 | inconclusive: -4.42% | 
CCn1c2ccc(C)cc2c2n[nH]c(=S)nc21 | inactive: -2.88% | 
CCC1CSC(Nc2ccc(C(=O)/C=C/c3ccc(Br)cc3)cc2)=N1 (stereo not given) | inactive: -2.75% | 
O=C(CCNc1cccc(C(F)(F)F)c1)c1ccco1 | inconclusive: -24.1% | 
CN1CCN(c2nnc(-c3ccc(Cl)cc3)c3ccccc23)CC1 | inactive: -3.29% | 
CCc1c(C)c2ccc(OCC(N)=O)cc2oc1=O |  | inconclusive: 23.1 µM [falling, single point]
COC(=O)c1sc2ccccc2c1NC(=O)c1ccc(S(=O)(=O)N2CC(C)CC(C)C2)cc1 (stereo not given) | inconclusive: 10.9% | 
COc1ccc(CCN2CC(C(=O)NCCc3ccccc3C)CCC2=O)cc1 (stereo not given) | inactive: -0.641% | 
OCCN(/C=N/c1nc(-c2ccc(Br)cc2)cs1)CCO |  | inconclusive: 1.3 µM [rising, full curve, poor fit]
O=C(NNC(=O)c1cnccn1)c1ccc(Cl)cc1 |  | inconclusive: 25.1 µM [falling, single point]
O=C(O)c1ccc(Cl)c(N2C(=O)Nc3ccccc3N2O)c1 | inactive: 6.94% | 

Gathered by group: the entries above with bromine
Structure (SMILES) | activity change, negative = inhibition | Potency
O=C(COC(=O)CNC(=O)c1cccc(Br)c1)Nc1nnc(-c2ccccc2)o1 | inconclusive: -9.56% | 
Cc1c(-c2cc(Br)ccc2O)nc2cc3c(cc2c1C)OCO3 | inconclusive: 3.69% | 
COc1cccc(NC(=O)CN(C)C(=O)c2cc(-c3cccc(Br)c3)nc3ccccc23)c1 | inconclusive: -19% | 
CCC1CSC(Nc2ccc(C(=O)/C=C/c3ccc(Br)cc3)cc2)=N1 (stereo not given) | inactive: -2.75% | 
OCCN(/C=N/c1nc(-c2ccc(Br)cc2)cs1)CCO |  | inconclusive: 1.3 µM [rising, full curve, poor fit]

(list continues)

Structure (SMILES) | activity change, negative = inhibition | Potency
CCOc1ccc(C(=O)Nc2ccccc2C(=O)O)cc1 | inconclusive: 194% | 
CCCCC[C@H](O)/C=C/[C@@H]1[C@@H](CCCCCCC(=O)O)[C@@H](O)C[C@H]1O |  | inconclusive: 1.64 µM [falling, full curve]
NNC(=O)c1cccc(COc2ccc3c(c2)CCC3)c1 |  | inconclusive: 20.6 µM [falling, single point]
CCCCN(CC)CCNc1c(NC2CCN(C(=O)OCC)CC2)c(=O)c1=O | inconclusive: 2.83% | 
Cc1cc(N2O[C@]34C=C[C@]25C[C@@H](O)CC[C@]5(C)C3CC[C@]2(C)[C@@H]([C@H](C)/C=C/[C@H](C)C(C)C)CC[C@H]24)no1 (stereo not given in full) | inactive: 4.06% | 
Cc1nnc2sc(SCC(=O)Nc3nccs3)nn2c1=O | inconclusive: -23% | 
COc1cc(C(=S)N2CCCC2)cc(Cl)c1OCC(=O)Nc1ccc(C)cc1C | inconclusive: -1.97% | 
O=c1oc2cc(OCc3c(F)c(F)c(F)c(F)c3F)ccc2cc1-c1ccccn1 | inactive: 2.52% | 
CCC(C)CCN1CCN=C1Nc1ccccc1 (stereo not given) | inactive: -3.38% | 
CC(=O)C(C(C)=O)c1c(Cl)c(O)c(O)c2c(C(=O)c3ccccc3)coc12 | inconclusive: -4.92% | 
COc1ccccc1NC(=O)COC(=O)c1c[nH]c2ccccc12 |  | inconclusive: 13 µM [falling, partial curve, poor fit]
O=C(CCC(=O)OCc1ccc(C(=O)Oc2ccccc2)cc1)Nc1cccc2ccccc12 |  | inconclusive: 20 µM [rising, single point]
O=C(Nc1ccc(N2C(=O)C3CCCCC3C2=O)cc1Cl)c1cccs1 (stereo not given) | inconclusive: 8.99% | 
COC(=O)c1ccc2c(=O)n(CCCN3CCCC3=O)c(=S)[nH]c2c1 | inconclusive: 10.5% | 
Cc1ccc(S(=O)(=O)Nc2cc(=O)[nH]c(SCc3ccc(Cl)cc3)n2)cc1 | inactive: 3.91% | 
O=C(c1ccccc1)C1C(c2ccccc2)C1[N+](=O)[O-] (stereo not given) | inactive: 4.41% | 
CC(=O)c1ccc(N2CCCC2)c(F)c1 | inconclusive: 2.66% | 
CS(=O)(=O)N1CCC(C(=O)NCCC2=CCCCC2)CC1 | inconclusive: 25.2% | 
Cc1cc(C(=O)N/N=C/c2ccccc2[N+](=O)[O-])c(C)o1 |  | inconclusive: 17.8 µM [falling, partial curve]
CCCCN(C)CCC(=O)Nc1ccc(F)c(F)c1 | inactive: -1.01% | 
COC(=O)c1ccc(C2c3c(oc4cc(C)c(C)cc4c3=O)C(=O)N2CCCN(C)C)cc1 (stereo not given) |  | inconclusive: 31.6 µM [rising, single point]
CC(C)CNC(=O)c1cc(-c2ccc3c(c2)OCO3)on1 |  | inconclusive: 10 µM [falling, partial curve]
Cc1[nH]c(C)c(S(=O)(=O)N2CCCCC2C)c1C(=O)N1CCCC1 (stereo not given) | inconclusive: 0.427% | 
Cn1c(SCC(=O)Nc2cccnc2Cl)nc2ccccc21 | inconclusive: 0.39% | 
Cc1cc(C)cc(NC(=O)C2CCN(C(=O)[C@@H]3Cc4ccccc4CN3)CC2)c1 |  | inconclusive: 11.2 µM [falling, partial curve]
COc1ccc2c(c1OC)C(=O)OC2Nc1nc(-c2ccc(-c3ccccc3)cc2)cs1 (stereo not given) |  | inconclusive: 18.4 µM [falling, single point]
CCOC(=O)C(CC)/C(C)=N\NC(=O)c1ccccc1O (stereo not given) |  | inconclusive: 4.11 µM [rising, full curve]

Structure (SMILES) | activity change, negative = inhibition | Potency
O=S(=O)(Nc1ccccc1N1CCOCC1)c1cccs1 | inconclusive: 1.46% | 
Cc1ccc(-c2n[nH]c(Cc3ccccc3)n2)cc1 | inactive: 4.09% | 
COc1ccc(/C=N/NC(=O)C2C3CCCCC32)cc1OC (stereo not given) | inconclusive: -2.41% | 
CSc1nsc(SCC(=O)Nc2nc3ccc(C)cc3s2)n1 | inconclusive: 1.56% | 
CCOc1ccc(CC(=O)N2CCN=C2SCc2ccc([N+](=O)[O-])cc2)cc1 | inactive: 0.92% | 
Cn1nc(-c2ccc(Cl)cc2)c2cc(C(=O)NCCN3CCOCC3)sc21 | inconclusive: 20.7% | 
Cc1occc1C(=O)NNC(=O)c1ccccc1C(=O)O |  | inconclusive: 4.47 µM [falling, partial curve]
COc1ccc(-c2cc(C)no2)cc1S(=O)(=O)NCCCN1CCCCCC1 | inactive: -0.792% | 
O=C(Nc1ccc(Br)cn1)c1cccc(C(=O)Nc2ccc(Br)cn2)c1 |  | inconclusive: 11.2 µM [falling, partial curve]
O=C(NC(=S)Nc1nc(-c2cccc3ccccc23)cs1)c1cc2ccccc2o1 | inconclusive: 3.46% | 
Cc1cc2cc(C=C(C#N)C#N)c(Cl)nc2cc1C |  | inconclusive: 20.6 µM [falling, partial curve, poor fit]
CCCCNC(=O)N(O)C1N(/N=C/c2cccs2)C(=S)SC1(C)C (stereo not given) | inconclusive: 14.6% | 
Cc1c(C(=O)Nc2ccc3c(c2)OCO3)oc2ccccc12 |  | inconclusive: 15.8 µM [falling, partial curve, poor fit]
COc1cc(/C=N/NC(=S)NCc2ccco2)cc(OC)c1OC |  | inconclusive: 29.1 µM [falling, single point]
CCC(C)(C(=O)NC1CCCCC1)N(Cc1cccs1)C(=O)Cc1cccs1 (stereo not given) | inconclusive: 4.85% | 
Cc1ccc(S(=O)(=O)CC(=O)Nc2sc3c(c2C#N)CCCCC3)cc1 | inactive: -5% | 
O=C(O)c1ccc2c(c1)C(=O)N([C@]1(C(=O)O)CC1c1ccccc1)C2=O (stereo not given in full) | inactive: -4.48% | 
CCc1nnc(NS(=O)(=O)c2ccc(N/C=C\C(=O)c3ccc4ccccc4c3)cc2)s1 |  | inconclusive: 18.4 µM [activator, partial curve, poor fit]
O=C(NNc1ccccc1C(F)(F)F)c1sccc1Br | inactive: -15.7% | 
c1ccc2c(c1)nc1n2CCS1 | inconclusive: -1.79% | 
Cc1cc(C)nc(NS(=O)(=O)c2ccc(NS(=O)(=O)c3ccccc3)cc2)n1 |  | inconclusive: 29.1 µM [falling, single point]
O=C(NCCN1CCN(C(=O)c2cccc(Br)c2)CC1)C(=O)Nc1ccc(Br)cc1 |  | inconclusive: 11.2 µM [falling, single point]
CCOc1ccc(C(C(=O)NCC2CCCO2)N(C(=O)c2snc(C(N)=O)c2N)c2ccc3c(c2)OCCO3)cc1 (stereo not given) | inconclusive: -4.16% | 
CC1=CN2C(=N)/C(=C/c3ccc([N+](=O)[O-])o3)C(=O)N=C2S1 |  | inconclusive: 29.1 µM [rising, partial curve, poor fit]
CC(C)(C)c1cccc(OCCCSc2ncccn2)c1 | inconclusive: 9.08% | 
COC(=O)c1cccc(NC(=O)CSc2nc3cccnc3n2C)c1 | inconclusive: -4.93% | 

Whole records from above.
`CC(C)(C)c1cccc(OCCCSc2ncccn2)c1` reads activity change, negative = inhibition: inconclusive: 9.08%
`c1ccc2c(c1)nc1n2CCS1` reads activity change, negative = inhibition: inconclusive: -1.79%
